Reference: paper PMC8505764
The exact form of at least one protein or probe is not confirmed. The comparison behind a weaker result is the experiment's own reference, which may not be listed here. At least one verdict was read from the data and is not stated in words by the source.

Columns and labels:
[1] = test system: BdPIL1 (Brachypodium distachyon); assay: EMSA; conditions: EMSA: 1 pmol probe, 2 ug protein in 20 uL, 50 mM Tris-HCl pH 7.5, 50 mM NaCl, 200 mM KCl, 5 mM MgCl2, 5 mM EDTA, 5 mM DTT, 30 min, recombinant protein, protein details: N-terminal GST, C-terminal strep-tag (SAWRHPQFGG), label: 5'-32P
[2] = test system: BdPIL3 (Brachypodium distachyon); assay: EMSA; conditions: EMSA: 1 pmol probe, 2 ug protein in 20 uL, 50 mM Tris-HCl pH 7.5, 50 mM NaCl, 200 mM KCl, 5 mM MgCl2, 5 mM EDTA, 5 mM DTT, 30 min, recombinant protein, protein details: N-terminal GST, C-terminal strep-tag (SAWRHPQFGG), label: 5'-32P
[3] = 10x and 20x cold competitor tested
[4] = AtphyB Pfr 0.1-2 ug added, binding inhibited
[5] = BdphyA Pfr 0.1-2 ug added, binding inhibited

## CACGTACGCCTGCACGCGCAGACGCGCTCCATCGATTATACTACTTCCTCCGGCCGGAAT (double strand) [BdPOR promoter probe (N-box)]
[1]; [3]
  binding result: binds
[1]; [4]
  binding result: binds more weakly
[1]; [5]
  binding result: binds more weakly
[2]; [3]
  binding result: binds
[2]; [4]
  binding result: binds more weakly
[2]; BdphyA Pfr 0.1-2 ug added, inhibited more efficiently than BdPIL1
  binding result: binds more weakly

## GCATGAATGCACGTACGGAGTTTGGTACGCATGCATGTGTACATGTAGTGTACGTGAATG (double strand) [BdSAUR50 promoter probe (E-box)]
[1]; 20x cold competitor tested
  binding result: binds
[1]; [5]
  binding result: binds more weakly
[2]; 20x cold competitor tested
  binding result: binds
[2]; [5]
  binding result: binds more weakly

## TTGGTAATAGAAGTTGTTTGGTCGCACCATTGGAGAACACGTGAATTTTTTATTGATTGC (double strand) [BdMIR156H promoter probe (G-box)]
[1]; 20x cold competitor tested
  binding result: binds
[2]; 20x cold competitor tested
  binding result: binds
